The record followed here is paper PMC9856072, “Complexed Crystal Structure of the Dihydroorotase Domain of Human CAD Protein with the Anticancer Drug 5-Fluorouracil” (Biomolecules, 2023).

The target of the assay is dihydroorotase domain of human CAD protein (huDHOase) (human) (UniProt P27708). Description: crystal structure; huDHOase co-crystallised with malate (pH 6.0, 1.64 Å) or with 5-FU (pH 6.5, 1.97 Å); space group C222(1), one molecule per asymmetric unit; dimer A-A' built by crystal symmetry and selected through PISA; both purified.

No constants are given. Whether binding was seen depends on the method and setting. Some binding calls cover weakened binding; strength is not graded here.

B1: dihydroorotase domain of human CAD protein (huDHOase) (domain or fragment, UniProt P27708 1456-1846)
chain: MTSQKLVRLPGLIDVHVHLREPGGTHKEDFASGTAAALAGGITMVCAMPNTRPPIIDAPALALAQKLAEAGARCDFALFLGASSENAGTLGTVAGSAAGLKLYLNETFSELRLDSVVQWMEHFETWPSHLPIVAHAEQQTVAAVLMVAQLTQRSVHICHVARKEEILLIKAAKARGLPVTCEVAPHHLFLSHDDLERLGPGKGEVRPELGSRQDVEALWENMAVIDCFASDHAPHTLEEKCGSRPPPGFPGLETMLPLLLTAVSEGRLSLDDLLQRLHHNPRRIFHLPPQEDTYVEVDLEHEWTIPSHMPFSKAHWTPFEGQKVKGTVRRVVLRGEVAYIDGQVLVPPGYGQDVRKWPQGAVPQLPPSAPATSEMTTTPERPRRGIPGLPD
modifications: carbamylated lysine at 1556 (Kcx1556)
As for B1, the binding entry is “binds”.
